From paper PMC10064699

Protein sequences, listed by entry. Tags and fused reporters are not part of them. Lines headed by an entry give the natural chain unless they say otherwise; changes in a name come on top.
UniProt Q386W1: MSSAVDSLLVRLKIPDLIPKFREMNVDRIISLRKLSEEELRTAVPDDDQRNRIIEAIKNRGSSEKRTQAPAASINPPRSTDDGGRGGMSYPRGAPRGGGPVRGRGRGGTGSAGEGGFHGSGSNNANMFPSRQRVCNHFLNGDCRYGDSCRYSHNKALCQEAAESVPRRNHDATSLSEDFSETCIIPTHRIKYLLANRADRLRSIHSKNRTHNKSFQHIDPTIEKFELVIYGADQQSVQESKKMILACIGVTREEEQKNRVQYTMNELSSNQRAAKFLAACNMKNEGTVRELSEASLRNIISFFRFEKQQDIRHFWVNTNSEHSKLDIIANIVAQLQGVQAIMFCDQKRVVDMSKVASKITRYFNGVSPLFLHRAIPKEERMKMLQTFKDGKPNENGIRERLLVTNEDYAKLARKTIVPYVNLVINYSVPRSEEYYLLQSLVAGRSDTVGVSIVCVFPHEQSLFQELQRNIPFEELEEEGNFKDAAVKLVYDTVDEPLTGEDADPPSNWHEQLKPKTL
UniProt Q57TY3: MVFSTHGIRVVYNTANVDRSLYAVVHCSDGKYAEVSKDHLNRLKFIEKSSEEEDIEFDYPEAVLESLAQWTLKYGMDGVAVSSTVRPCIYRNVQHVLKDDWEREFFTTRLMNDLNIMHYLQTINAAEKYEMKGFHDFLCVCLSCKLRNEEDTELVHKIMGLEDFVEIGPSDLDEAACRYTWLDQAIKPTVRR

Target: TAP-ZC3H41 (Trypanosoma brucei) (UniProt Q386W1)
Test: co-IP; TAP-tagged proteins immunoprecipitated on rabbit IgG paramagnetic beads from extracts of UV-irradiated or non-irradiated cells treated with RNase A and DNase I; beads washed with 1 M NaCl, 0.5% IGEPAL; PNK labelling with 32P, SDS-PAGE, PhosphorImager and immunoblot

binding: binds
Substance: ZC3H41-associated protein (Z41AP), endogenous (from UniProt Q57TY3)

No constants are given. Whether binding was seen depends on the method and setting. Binding seen in cells or lysates may run through a third protein. Binding can be weak; no strength is given.
